According to publication PMC5020499, “Crystal structures of archaeal 2-oxoacid:ferredoxin oxidoreductases from Sulfolobus tokodaii” (Scientific Reports, 2016):
No constants are given. Whether binding was seen depends on the method and setting. Some entries that bind do so weakly or less than the wild type.

By UniProt entry, the sequences of proteins in these tests, tags left out. Residues count along the entry.
UniProt Q96Y68, residues 6-305: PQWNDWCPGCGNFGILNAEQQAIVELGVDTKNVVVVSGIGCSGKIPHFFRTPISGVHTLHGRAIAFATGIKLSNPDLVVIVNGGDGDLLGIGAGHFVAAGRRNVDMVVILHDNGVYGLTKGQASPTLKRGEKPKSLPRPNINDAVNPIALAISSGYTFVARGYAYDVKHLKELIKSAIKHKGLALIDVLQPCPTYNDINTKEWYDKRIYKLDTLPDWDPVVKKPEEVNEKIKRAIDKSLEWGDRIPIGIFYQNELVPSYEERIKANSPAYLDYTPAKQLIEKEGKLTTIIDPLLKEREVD

Molecular target: T1, StOFOR1 a-subunit (STK_23000) (Sulfolobus tokodaii strain 7) (UniProt Q96Y66)
T1 sequence: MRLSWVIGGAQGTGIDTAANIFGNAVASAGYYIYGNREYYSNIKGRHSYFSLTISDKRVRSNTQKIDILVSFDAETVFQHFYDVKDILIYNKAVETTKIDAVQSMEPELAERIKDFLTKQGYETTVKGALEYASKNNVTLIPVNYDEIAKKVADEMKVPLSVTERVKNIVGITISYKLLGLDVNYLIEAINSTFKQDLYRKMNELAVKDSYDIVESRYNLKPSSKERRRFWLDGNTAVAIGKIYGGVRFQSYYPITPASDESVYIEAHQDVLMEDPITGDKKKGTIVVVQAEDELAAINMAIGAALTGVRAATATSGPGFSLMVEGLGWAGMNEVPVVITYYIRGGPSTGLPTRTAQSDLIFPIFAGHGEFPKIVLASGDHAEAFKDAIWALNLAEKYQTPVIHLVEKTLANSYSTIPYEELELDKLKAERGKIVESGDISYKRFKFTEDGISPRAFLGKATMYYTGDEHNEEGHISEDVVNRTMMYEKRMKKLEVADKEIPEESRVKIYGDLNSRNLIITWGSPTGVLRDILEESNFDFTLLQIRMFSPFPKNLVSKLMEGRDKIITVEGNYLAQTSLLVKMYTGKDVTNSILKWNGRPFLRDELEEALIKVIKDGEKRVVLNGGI
Test: crystal structure; StOFOR1 co-crystallised with 50 mM 2-oxobutyrate and 1 mM CoA; sitting drop, 25 °C, 15% PEG3350, 0.1 M Tris-HCl pH 8.5, 0.1 M NaBr; 2.5 Å; two protomers in the asymmetric unit; both purified

For “StOFOR1 b-subunit (STK_22980) (from UniProt Q96Y68 6-305)”, the binding was “binds”.
